Reference: PubChem BioAssay AID1259276 (Sanger Institute, 2017)
In all, the deposit lists 794 reagents; below is a random part of them. Over the whole deposit, 24 (3%) were called active. 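Calls come only from the siRNA-alone arm; drug synergy scores do not affect them.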 Unmarked entries are inactive. Not all columns of the deposit are shown. Not stated in the record: the amount of reagent, the time to read-out.

- Aim: 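Kinome-wide search for kinases colon cancer cells need, and for drug partners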 (primary screen)
- Cell system: human C2BBe1 colorectal cancer cells
- Reagents: siRNA pool against human genes
- Treatment: DMSO vehicle, or one anchor drug: BYL719 at 1 µM, cetuximab at 5 µg/ml, or trametinib at 10 nM; exposure length not stated
- Measured: 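Cell viability as a fraction of non-targeting control wells, mean of replicates, also as a control-based robust z-score, plus a synergy score for each anchor drug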
- Direction: viability robust z-score, siRNA alone: higher = more viable cells after knock-down
- Hit rule: 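Called essential when knock-down alone gives a viability robust z-score below -3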
- Meaning of the calls: active = essential (siRNA alone); inactive = no change (siRNA alone)

With knock-down of UCK2 (uridine-cytidine kinase 2) the results were viability robust z-score, siRNA alone 0.273. For MAPK3 (mitogen-activated protein kinase 3), the entry reads viability robust z-score, siRNA alone -2.61. Knock-down of ATRX (ATRX chromatin remodeler) gave: viability robust z-score, siRNA alone 0.472. AGK (acylglycerol kinase) scored viability robust z-score, siRNA alone 0.472. CIB2 (calcium and integrin binding family member 2) scored viability robust z-score, siRNA alone 0.472. SRPK2 (SRSF protein kinase 2) gave viability robust z-score, siRNA alone 0.472.

Depletion of PRKCI (protein kinase C iota) resulted in: viability robust z-score, siRNA alone 0.472. Silencing of DGKK (diacylglycerol kinase kappa) resulted in: viability robust z-score, siRNA alone 0.472. Against PRKAA1 (protein kinase AMP-activated catalytic subunit alpha 1) the deposit lists viability robust z-score, siRNA alone 0.472. ABL2 (ABL proto-oncogene 2, non-receptor tyrosine kinase) gave viability robust z-score, siRNA alone 0.472. FBXW7 (F-box and WD repeat domain containing 7) gave viability robust z-score, siRNA alone 0.472. With knock-down of TSSK6 (testis specific serine kinase 6), the record shows viability robust z-score, siRNA alone 0.445.

For PRKY (protein kinase Y-linked (pseudogene)) the deposit lists viability robust z-score, siRNA alone 0.17. Knock-down of BPTF (bromodomain PHD finger transcription factor) gave: viability robust z-score, siRNA alone 0.472. Against MAPK8 (mitogen-activated protein kinase 8) the deposit lists viability robust z-score, siRNA alone -0.28. With knock-down of PRKG2 (protein kinase cGMP-dependent 2), the screen gave viability robust z-score, siRNA alone 0.472. With knock-down of RIPK2 (receptor interacting serine/threonine kinase 2), the record shows viability robust z-score, siRNA alone 0.472. Silencing of TRIB1 (tribbles pseudokinase 1) resulted in: viability robust z-score, siRNA alone -0.245.

PNKP (polynucleotide kinase 3'-phosphatase) showed viability robust z-score, siRNA alone 0.472.

A portion from the list above, for reference:
ATRX (ATRX chromatin remodeler) | viability robust z-score, siRNA alone: 0.472
AGK (acylglycerol kinase) | viability robust z-score, siRNA alone: 0.472
